Values quoted from earlier work in patent US20130140210A1, “LOW-DOSED SOLID ORAL DOSAGE FORMS FOR HRT” (BAYER INTELLECTUAL PROPERTY GMBH, priority 2010, published 2013).
Like-named read-outs stand apart in the source and are kept apart here. At least one structure is not confirmed: it was looked up by name or label, or the drawing left a doubt.

System: moderate or severe hot flushes in menopausal women

Which “symptom relief in women with moderate to severe vasomotor symptoms” value (shortened to “symptom relief in women with moderate”) (0.25 mg E2) does the source give for `C[C@]12CC[C@@H]3c4ccc(O)cc4CC[C@H]3[C@@H]1CC[C@@H]2O` [E2, estradiol] here?
Its value is “ineffective”.

What about the “symptom relief in women with moderate” value (0.5 mg E2) of the same compound?
The value was “require more time”.

What about the “symptom relief in women with moderate” value (2 mg E2) of the same compound?
The value was “effective for symptom relief”.

And the “relationship between the E2 dose and reduction in vasomotor symptoms” value (0.25-2 mg E2 oral, number of moderate to severe hot flushes and hot flush weekly weighted score)?
Its value is “significant linear dose-response relationship”.

What about the “decreases in the number of hot flushes and the hot flush weekly weighted score compared with the placebo group” value (end of the 12-week treatment period, 0.5-, 1-, and 2-mg groups, oral) of the same compound?
The value was “significantly greater”.

And the “significance compared to the placebo group at week 4” value (week 4, only the 1- and 2-mg groups)?
The value was “showed significance”.
